Some entries share one result that the patent states for a list of compounds. Some compounds share one range, which may span the group rather than tell each member.
These compounds were tested on model of bronchial asthma in guinea pigs (assay: Content of cell elements in BAL in the model of bronchial asthma in guinea pigs). Settings: ten-time administration, 14 mg/kg; control 17.3×10^9 cells/L.
Format: in vivo, guinea pig
Protocol: Bronchial asthma in guinea pigs was induced by a standard method [Ricciardolo F L, Nijkamp F, De Rose V, Folkerts G. The guinea pig as an animal model for asthma// Current Drug Targets. 2008 June; 9(6):452-65]. The animals were immunized by one parenteral administration of 0.5 mL of a solution comprising 100 μg/mL ovalbumin (Sigma) and 100 mg/mL aluminium hydroxide. Intact animals received a physiological saline solution in an amount of 0.5 mL.
On days 29, 30 and 31, hyperactivity of the respiratory airways was provoked by inhalation administration of ovalbumin in ascending concentrations of 0.1, 0.3, and 0.5 mg/mL on days 1, 2, and 3 of the provocation, respectively. The inhalation lasted 5 minutes or until asphyxia symptoms became apparent (fall to one side). On day 32, the animals received a challenging dose of ovalbumin (1 mg/mL) for 5 minutes, while assessing a bronchospastic reaction.
The studied compounds were administered to the animals once daily every day for 6 or 10 days; the administration was terminated two days before the administration of the challenging dose of antigen.
The bronchoalveolar lavage (BAL) and cardiac cavity blood were derived from the animals 24 hours after administration of the challenging dose. The BAL was collected under anesthesia by lavaging the lungs with 5 mL of a physiological saline solution heated to 37° C. through the trachea, using a syringe dosing device.
The absolute number of cell elements in 1 μL of the lavage (cytosis) was counted in the bronchoalveolar lavage, using the Goryaev camera. Then, the BAL was centrifuged at 200 g for 10 minutes. The residue was used to prepare swabs that were fixed in methanol and stained according to Romanovsky-Giemsa to count endopulmonary cytogram.
The study comprised 3 experiments, wherein the first one was directed to the evaluation of the effect of claimed compounds 1-6 on the cell composition of the BAL, the second and the third experiments were aimed at evaluating the effect of compounds 1 and 2 on the cell composition of the BAL, the cell composition of the blood, and on the bronchospasm severity.

Row | SMILES | level of cell elements in the BAL
1 | O=C1CCCC(=O)N1CCc1nccs1 [Compound 6] | 2.5-6.3 ×10^9 cells/L
2 | Cn1cnc(CCN2C(=O)CCCC2=O)c1 [Compound 5] | 2.5-6.3 ×10^9 cells/L
3 | O=C1CCCC(=O)N1CCc1cnc[nH]1 [Compound 1, 1-(2-(1H-imidazol-4-yl)ethyl)piperidine-2,6-dione] | 2.5-6.3 ×10^9 cells/L
4 | O=C1CCCC(=O)N1CCc1ncc[nH]1 [Compound 2] | 2.5-6.3 ×10^9 cells/L
5 | O=C1CCCC(=O)N1CCc1nc2ccccc2s1 [Compound 4, 1-(2-(1,3-benzothiazol-2-yl)ethyl)piperidine-2,6-dione] | 2.5-6.3 ×10^9 cells/L
6 | CC1(C)CC(=O)N(CCc2cnc[nH]2)C(=O)C1 [Compound 3] | 2.5-6.3 ×10^9 cells/L

Source: US10220029B2, “Pharmaceutical composition comprising glutarimide derivatives and use thereof in the treatment of eosinophilic diseases” (OBSCHESTVO S ORGANICHENNOI OTVETSTVENNOSTIYU …, priority 2013, dated 2019)
